The other results are listed elsewhere or left out. Values are raw readings; no control value is given beside them.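 First-pass screen: polymyxin B was added at a level that permeabilizes the Salmonella outer membrane while sparing the inner membrane. DMSO wells, with and without polymyxin B, defined maximum growth. Because plates differed from one another, each plate's data were ranked separately and the compounds with the lowest OD600 were carried forward as hits.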
System: Salmonella enterica serovar Typhimurium SL1344
Assay: bacterial growth OD600 after 18 h with compound and polymyxin B; higher = more bacterial growth (less inhibition)
Conditions: 50 µM, Mueller-Hinton broth

SMILES	bacterial growth OD600 (polymyxin B 1 µg/mL)	bacterial growth OD600 (polymyxin B 0.75 µg/mL)
Cc1c(CC(=O)N(C)C(C)C)c2c(n1Cc1ccccc1F)CCCC2=O	0.026	–
CN(C(=O)CCc1nnc(Cc2ccc(-c3ccccc3)cc2)o1)C1CCOCC1	0.762	–
O=C(NCc1cccnc1)c1ccc(N2CCC(NCC3(N4CCOCC4)CCCCC3)CC2)cc1	–	0.827
Clc1ccc(CN2CCC(C3CCN(Cc4cccnc4)CC3)C2)cc1 (stereo not given)	–	0.787
CN(CCc1ccccc1)C(=O)c1cn(Cc2ccccc2Cl)nn1	0.807	–
CN(CCC1CCCCO1)C(=O)CC1(c2cccc(C(F)(F)F)c2)CC(=O)N(C2CC2)C1=O (stereo not given)	–	0.808
COc1cccc(CNC(=O)CCC2CCCN(C(=O)CSc3ccccc3)C2)c1 (stereo not given)	0.717	–
CC(=O)NCC1CCCN(Cc2cn(C)nc2-c2ccc(C3CCCCC3)cc2)C1 (stereo not given)	0.894	–
O=C(N[C@H]1CCCCNC1=O)c1ccc(N2CCC(NCC3(N4CCOCC4)CCCC3)CC2)cc1	–	0.899
CCN(CC)C(=O)C1CCCN(C(=O)CC2(c3ccccc3Cl)CC(=O)N(CCOC)C2=O)C1 (stereo not given)	–	0.841
CN(Cc1ccc(F)cc1)CC1(O)CCCN(CC(C)(C)C)C1=O (stereo not given)	0.954	–
CCN1CCN(C2(C(=O)NCC(C)(C)CN(C)C)Cc3ccccc3C2)CC1	–	0.976
O=C(CCCn1cncn1)N1CCCC(CCc2ccccc2C(F)(F)F)C1 (stereo not given)	0.884	–
Cc1cccnc1CC(C)NC(=O)c1coc(COc2cccc(F)c2)n1 (stereo not given)	0.859	–
Cc1ccc(C(=O)N2CCC3(CCCN(Cc4ccccc4F)C3)C2)c(O)n1 (stereo not given)	1.05	–
CC(C)NCC1(O)CCCN(Cc2ccc(F)c(F)c2)C1=O (stereo not given)	1.01	–
COc1cccc(CCC2CCCN(C(=O)C3=NN(C)C(=O)CC3)C2)c1 (stereo not given)	–	0.817
CCOC(=O)C1(CCc2ccccc2)CCCN(C(=O)CCC2=NNC(=O)CC2)C1 (stereo not given)	1.01	–
COc1ccccc1OCc1cc(C(=O)NCc2ccc(C)s2)n[nH]1	0.867	–
Cc1ccc(OCc2cc(C(=O)N(C)CCC(C)C)no2)cc1C	–	0.001
CCc1[nH]c2c(CNC(C)C(C)(C)O)cc(F)cc2c1C (stereo not given)	0.734	–
COC(=O)CCCNC(=O)c1cc(Cn2c(C)nc3ccccc32)[nH]n1	0.909	–
COc1cccc([C@@H](C)NC(=O)c2cn(CC(C)C)cc(C(=O)N3CCCCCC3)c2=O)c1	–	0.831
O=C(NCCc1cnccn1)C1CCC(=O)N(CCc2ccccc2)C1 (stereo not given)	0.896	–
CS(=O)(=O)N1CCC(C2CCN(Cc3cccnc3)CC2)C1 (stereo not given)	–	0.872
CC(=O)N1CCC[C@H]1C(=O)N1CCC(CCC(=O)N(C)Cc2ccccc2)CC1	0.887	–
COc1ccc(-n2ncc(C(C)NCc3cc4c(cc3Cl)OCO4)c2C)cc1 (stereo not given)	1.06	–
O=C(CC(F)(F)F)N1CCc2[nH]nc(-c3ccc4c(c3)OCO4)c2C1	–	0.815
COc1cccc(CN2CCNC(=O)C2CC(=O)NCC2CCN(C(C)C)CC2)c1OC (stereo not given)	0.721	–
CN(CCC(=O)NCC1Cc2cc(-c3cnc4ccccc4c3)cc(F)c2O1)C1CCS(=O)(=O)C1 (stereo not given)	–	0.786

One compound at a time, as listed above:
`O=C(NCCc1cnccn1)C1CCC(=O)N(CCc2ccccc2)C1` (stereo not given) as listed: bacterial growth OD600 (polymyxin B 1 µg/mL): 0.896
`CN(CCC(=O)NCC1Cc2cc(-c3cnc4ccccc4c3)cc(F)c2O1)C1CCS(=O)(=O)C1` (stereo not given) as listed: bacterial growth OD600 (polymyxin B 0.75 µg/mL): 0.786

Source: the supplement of paper PMC12889115
